Source: the supplement of paper PMC10849652
The other results are listed elsewhere or left out.

Chains of the proteins cited; added tags and fusions are not shown. Lines headed by an entry give the natural chain unless they say otherwise; changes in a name come on top.
UniProt P13693: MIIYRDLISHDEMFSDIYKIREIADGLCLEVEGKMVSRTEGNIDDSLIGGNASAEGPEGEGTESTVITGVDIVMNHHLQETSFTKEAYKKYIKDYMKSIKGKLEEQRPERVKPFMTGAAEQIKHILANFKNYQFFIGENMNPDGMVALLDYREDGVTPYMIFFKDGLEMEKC
UniProt Q8NFQ8: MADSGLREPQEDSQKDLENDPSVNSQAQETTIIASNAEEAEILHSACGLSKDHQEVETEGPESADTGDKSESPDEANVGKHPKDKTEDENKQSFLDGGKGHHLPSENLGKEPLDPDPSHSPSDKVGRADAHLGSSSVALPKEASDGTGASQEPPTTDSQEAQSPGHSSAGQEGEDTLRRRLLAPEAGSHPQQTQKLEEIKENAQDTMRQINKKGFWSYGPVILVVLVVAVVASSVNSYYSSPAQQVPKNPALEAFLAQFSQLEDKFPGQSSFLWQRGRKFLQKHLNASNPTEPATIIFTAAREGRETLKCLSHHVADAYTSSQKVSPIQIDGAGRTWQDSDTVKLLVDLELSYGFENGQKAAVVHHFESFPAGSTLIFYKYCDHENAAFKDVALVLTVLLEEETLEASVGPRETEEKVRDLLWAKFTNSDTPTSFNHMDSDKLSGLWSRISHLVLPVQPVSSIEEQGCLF
UniProt P06753, whole entry, looked up: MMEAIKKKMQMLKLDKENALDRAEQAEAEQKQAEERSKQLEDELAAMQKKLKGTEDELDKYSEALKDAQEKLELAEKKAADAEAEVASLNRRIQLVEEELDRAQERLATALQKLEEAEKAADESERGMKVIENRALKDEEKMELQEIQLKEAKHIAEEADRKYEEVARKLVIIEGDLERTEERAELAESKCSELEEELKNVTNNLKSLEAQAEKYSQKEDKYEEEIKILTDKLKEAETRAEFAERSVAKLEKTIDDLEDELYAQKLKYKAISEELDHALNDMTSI
UniProt Q9H497: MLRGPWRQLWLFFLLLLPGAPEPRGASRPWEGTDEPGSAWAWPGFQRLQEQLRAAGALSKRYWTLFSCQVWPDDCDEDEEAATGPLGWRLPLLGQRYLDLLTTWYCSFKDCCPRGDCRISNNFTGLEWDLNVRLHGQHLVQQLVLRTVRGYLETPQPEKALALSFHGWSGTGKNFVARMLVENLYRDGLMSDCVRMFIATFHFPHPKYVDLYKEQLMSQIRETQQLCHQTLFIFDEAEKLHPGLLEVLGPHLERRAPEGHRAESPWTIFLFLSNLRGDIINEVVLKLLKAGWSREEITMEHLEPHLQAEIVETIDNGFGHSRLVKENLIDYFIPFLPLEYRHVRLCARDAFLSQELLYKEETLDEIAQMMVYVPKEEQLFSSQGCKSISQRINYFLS
UniProt Q9NS69: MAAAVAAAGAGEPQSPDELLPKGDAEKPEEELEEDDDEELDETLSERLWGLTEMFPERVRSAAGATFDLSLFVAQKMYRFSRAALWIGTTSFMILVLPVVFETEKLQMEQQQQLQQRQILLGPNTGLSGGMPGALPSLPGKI
UniProt Q9Y3Q8: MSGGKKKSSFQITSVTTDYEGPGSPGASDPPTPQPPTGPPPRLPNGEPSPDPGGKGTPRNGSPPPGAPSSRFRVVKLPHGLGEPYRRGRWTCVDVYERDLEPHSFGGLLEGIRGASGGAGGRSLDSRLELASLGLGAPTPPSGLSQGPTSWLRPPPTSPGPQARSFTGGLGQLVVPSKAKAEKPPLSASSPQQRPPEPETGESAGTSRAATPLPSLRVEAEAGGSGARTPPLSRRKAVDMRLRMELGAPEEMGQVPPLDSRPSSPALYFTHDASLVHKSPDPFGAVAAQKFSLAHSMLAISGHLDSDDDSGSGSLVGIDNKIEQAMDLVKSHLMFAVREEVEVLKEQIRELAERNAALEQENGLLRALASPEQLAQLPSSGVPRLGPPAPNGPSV
UniProt Q8WW01: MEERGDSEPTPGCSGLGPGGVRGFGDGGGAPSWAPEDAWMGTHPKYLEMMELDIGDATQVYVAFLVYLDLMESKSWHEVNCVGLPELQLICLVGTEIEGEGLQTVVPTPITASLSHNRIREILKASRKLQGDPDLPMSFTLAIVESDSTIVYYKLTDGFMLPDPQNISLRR
UniProt Q15785: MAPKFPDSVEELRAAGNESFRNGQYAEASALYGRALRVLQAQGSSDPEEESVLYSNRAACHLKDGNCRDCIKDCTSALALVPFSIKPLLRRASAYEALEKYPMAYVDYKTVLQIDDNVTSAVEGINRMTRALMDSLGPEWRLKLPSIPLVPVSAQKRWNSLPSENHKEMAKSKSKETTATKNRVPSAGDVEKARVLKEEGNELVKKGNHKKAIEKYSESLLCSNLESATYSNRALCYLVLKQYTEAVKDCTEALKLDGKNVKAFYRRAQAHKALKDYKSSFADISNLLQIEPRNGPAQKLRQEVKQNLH
UniProt O43715: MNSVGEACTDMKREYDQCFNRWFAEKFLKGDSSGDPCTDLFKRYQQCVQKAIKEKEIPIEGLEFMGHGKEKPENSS
UniProt Q96S44: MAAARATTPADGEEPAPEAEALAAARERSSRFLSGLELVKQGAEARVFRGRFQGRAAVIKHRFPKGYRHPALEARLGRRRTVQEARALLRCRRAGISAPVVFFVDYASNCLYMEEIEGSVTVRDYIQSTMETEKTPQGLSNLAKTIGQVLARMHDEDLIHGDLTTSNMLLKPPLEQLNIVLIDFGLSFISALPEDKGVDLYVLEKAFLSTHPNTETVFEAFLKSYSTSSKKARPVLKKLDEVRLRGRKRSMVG
UniProt O75157: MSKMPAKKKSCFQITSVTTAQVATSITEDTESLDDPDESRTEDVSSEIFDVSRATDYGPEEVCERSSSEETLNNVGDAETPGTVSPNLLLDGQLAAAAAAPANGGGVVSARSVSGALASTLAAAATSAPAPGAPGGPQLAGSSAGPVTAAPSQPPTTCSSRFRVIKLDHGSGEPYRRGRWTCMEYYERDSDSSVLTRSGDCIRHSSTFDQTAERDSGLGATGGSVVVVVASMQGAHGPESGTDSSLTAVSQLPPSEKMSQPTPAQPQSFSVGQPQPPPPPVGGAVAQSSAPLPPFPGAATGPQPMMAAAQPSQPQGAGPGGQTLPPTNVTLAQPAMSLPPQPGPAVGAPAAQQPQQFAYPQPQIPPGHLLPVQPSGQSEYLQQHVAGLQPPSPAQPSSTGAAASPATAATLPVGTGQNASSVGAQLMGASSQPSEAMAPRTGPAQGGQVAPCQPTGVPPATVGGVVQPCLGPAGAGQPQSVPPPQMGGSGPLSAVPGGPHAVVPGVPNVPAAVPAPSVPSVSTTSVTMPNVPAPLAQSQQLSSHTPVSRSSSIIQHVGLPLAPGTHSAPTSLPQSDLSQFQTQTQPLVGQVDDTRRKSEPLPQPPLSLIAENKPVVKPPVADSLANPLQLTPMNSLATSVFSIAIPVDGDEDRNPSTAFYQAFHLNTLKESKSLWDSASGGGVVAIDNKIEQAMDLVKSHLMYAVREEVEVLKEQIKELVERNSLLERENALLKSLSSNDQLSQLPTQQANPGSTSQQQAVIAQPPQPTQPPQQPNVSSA
UniProt O94826, whole entry, looked up: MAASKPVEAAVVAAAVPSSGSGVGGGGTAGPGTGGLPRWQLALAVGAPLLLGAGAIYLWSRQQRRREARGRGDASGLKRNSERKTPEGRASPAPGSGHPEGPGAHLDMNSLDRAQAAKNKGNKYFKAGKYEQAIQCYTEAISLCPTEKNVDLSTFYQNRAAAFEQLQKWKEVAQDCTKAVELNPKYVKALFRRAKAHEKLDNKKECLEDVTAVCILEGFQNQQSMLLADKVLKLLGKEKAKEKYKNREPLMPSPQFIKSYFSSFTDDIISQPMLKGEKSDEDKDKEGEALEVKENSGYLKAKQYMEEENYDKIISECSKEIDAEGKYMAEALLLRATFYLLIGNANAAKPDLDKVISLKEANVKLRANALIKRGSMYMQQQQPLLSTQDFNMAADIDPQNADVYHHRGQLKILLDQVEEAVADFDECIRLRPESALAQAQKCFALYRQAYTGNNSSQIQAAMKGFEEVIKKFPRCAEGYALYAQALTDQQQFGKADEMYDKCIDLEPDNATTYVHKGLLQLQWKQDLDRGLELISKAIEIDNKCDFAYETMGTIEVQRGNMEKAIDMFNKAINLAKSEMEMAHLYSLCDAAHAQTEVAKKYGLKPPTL
UniProt O96008: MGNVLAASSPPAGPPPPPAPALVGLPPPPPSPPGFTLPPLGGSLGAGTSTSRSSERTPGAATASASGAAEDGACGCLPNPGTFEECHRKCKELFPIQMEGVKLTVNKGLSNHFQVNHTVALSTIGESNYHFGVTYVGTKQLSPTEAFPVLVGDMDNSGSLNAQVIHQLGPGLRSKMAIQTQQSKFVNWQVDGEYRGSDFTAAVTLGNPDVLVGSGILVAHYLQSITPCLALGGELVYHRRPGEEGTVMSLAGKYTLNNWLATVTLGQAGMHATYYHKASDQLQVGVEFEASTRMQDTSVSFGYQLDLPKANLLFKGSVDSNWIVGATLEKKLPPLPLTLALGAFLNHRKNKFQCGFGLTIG
UniProt Q9NXH8: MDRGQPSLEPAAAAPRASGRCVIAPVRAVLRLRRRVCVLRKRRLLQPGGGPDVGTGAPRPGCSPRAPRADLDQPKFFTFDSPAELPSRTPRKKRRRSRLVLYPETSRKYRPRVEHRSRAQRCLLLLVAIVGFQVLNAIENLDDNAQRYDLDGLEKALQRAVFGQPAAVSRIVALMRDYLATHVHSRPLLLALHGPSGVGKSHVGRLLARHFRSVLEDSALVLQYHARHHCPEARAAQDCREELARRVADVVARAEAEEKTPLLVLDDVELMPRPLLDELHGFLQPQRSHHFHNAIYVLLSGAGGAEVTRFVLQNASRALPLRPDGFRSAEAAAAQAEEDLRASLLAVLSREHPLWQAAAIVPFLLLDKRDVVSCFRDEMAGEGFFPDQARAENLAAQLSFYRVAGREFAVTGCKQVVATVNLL
UniProt P11387: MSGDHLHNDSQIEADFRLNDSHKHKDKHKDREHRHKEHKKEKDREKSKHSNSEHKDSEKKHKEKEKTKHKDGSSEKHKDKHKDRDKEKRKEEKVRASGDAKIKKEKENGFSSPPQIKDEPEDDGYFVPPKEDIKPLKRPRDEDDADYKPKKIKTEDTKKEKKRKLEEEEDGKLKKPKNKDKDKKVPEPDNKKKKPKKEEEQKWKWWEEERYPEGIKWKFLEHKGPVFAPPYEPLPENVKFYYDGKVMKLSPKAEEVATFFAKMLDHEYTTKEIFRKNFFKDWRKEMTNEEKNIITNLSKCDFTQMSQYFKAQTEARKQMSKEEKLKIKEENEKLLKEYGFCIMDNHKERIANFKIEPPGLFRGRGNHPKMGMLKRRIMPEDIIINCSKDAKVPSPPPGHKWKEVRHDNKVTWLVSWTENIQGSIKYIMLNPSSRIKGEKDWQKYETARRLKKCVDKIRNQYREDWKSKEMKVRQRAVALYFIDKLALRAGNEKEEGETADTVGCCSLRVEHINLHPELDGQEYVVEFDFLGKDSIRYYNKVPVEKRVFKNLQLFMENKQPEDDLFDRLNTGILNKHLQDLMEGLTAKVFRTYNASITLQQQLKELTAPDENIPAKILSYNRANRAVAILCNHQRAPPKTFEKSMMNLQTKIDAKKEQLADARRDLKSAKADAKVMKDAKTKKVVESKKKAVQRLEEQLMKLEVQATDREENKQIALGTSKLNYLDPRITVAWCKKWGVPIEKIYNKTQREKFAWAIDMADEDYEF
UniProt O95985: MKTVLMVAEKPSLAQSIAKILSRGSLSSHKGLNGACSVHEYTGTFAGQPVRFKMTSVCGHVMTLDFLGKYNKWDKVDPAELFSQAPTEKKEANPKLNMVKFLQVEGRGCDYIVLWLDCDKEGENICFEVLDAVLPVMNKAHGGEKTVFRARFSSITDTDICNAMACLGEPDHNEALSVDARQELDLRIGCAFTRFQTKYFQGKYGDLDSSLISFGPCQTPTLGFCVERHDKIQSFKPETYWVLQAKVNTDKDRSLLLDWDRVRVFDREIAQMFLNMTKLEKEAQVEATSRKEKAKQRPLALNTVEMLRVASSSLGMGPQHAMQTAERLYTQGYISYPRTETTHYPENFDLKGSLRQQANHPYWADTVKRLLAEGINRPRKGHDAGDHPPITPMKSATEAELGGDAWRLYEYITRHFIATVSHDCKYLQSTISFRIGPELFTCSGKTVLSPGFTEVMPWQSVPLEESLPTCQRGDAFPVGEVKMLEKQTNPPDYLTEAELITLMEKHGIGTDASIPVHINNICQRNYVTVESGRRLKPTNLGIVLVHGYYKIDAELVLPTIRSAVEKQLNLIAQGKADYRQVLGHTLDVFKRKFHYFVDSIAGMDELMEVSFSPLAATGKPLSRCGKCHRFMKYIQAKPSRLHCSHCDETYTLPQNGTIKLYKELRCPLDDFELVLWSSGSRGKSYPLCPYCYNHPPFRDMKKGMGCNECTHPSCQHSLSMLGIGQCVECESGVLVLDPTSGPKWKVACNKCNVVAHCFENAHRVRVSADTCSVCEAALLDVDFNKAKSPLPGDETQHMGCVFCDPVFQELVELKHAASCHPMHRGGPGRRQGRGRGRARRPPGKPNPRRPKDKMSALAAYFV

Compound: C#Cc1cccc(Nc2ncnc3cc(OCCOC)c(OCCOC)cc23)c1 [erlotinib]
Assay: log2 fold change, soluble protein after heating vs DMSO (PISA); higher = thermal stabilisation; K562 cells, 10 uM, 30 min; active = over 0.2 and 3.5 SD of the protein, either way, in both replicates (recomputed)
Procedure, shortened: (§1)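 K562 cells at 2×10^6 cells/mL were exposed to 10 μM compound for 30 min, then aliquots were heated for 3 min across 48°C-58°C, pooled, and extracted in PBS containing 0.5% NP-40 at 4°C. The supernatant after 21,000xg for 90 min was taken as soluble protein and measured by TMTpro 16plex LC-MS/MS with channel sums equalised. Thermal stability is reported relative to control samples, with values from duplicates. Fold changes are given on a log2 scale.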

log2 fold change, inactive:
TPT1 (UniProt P13693) -0.025
TRMT61B (UniProt Q9BVS5) -0.015
TOLLIP (UniProt Q9H0E2) 0.022
TOR1AIP2 (UniProt Q8NFQ8) -0.056
TPM3 isoform 4 (UniProt P06753) 0.001
TOR3A (UniProt Q9H497) 0.022
TOMM22 (UniProt Q9NS69) 0.031
TSC22D4 (UniProt Q9Y3Q8) -0.048
TSEN15 (UniProt Q8WW01) 0.026

Compound: C/C(=N\NC(=O)C1=CC(=CC=C1)S(=O)(=O)N2CCOCC2)/C3=C(C=CC(=C3)Cl)O
Assay: as above
Procedure, shortened: as §1

log2 fold change, inactive:
TRIM25 (UniProt Q14258) -0.019
TOMM34 (UniProt Q15785) 0.086
TRIP11 (UniProt Q15643) 0.029
TRIM24 (UniProt O15164) -0.026
TPP2 (UniProt P29144) -0.192
TSEN34 (UniProt Q9BSV6) 0.035
TRIAP1 (UniProt O43715) -0.099
TP53RK (UniProt Q96S44) 0.001
TRIP13 (UniProt Q15645) 0.057
TRIO (UniProt O75962) 0.007
TSC22D2 (UniProt O75157) 0
TRAPPC10 (UniProt P48553) 0.121
TRMT112 (UniProt Q9UI30) 0.137
TOMM70 (UniProt O94826) 0.031
TOMM40 (UniProt O96008) -0.01
TOP2B (UniProt Q02880) -0.12
TNIK isoform 6 (UniProt Q9UKE5) -0.014
TOR4A (UniProt Q9NXH8) 0.016
TOP1 (UniProt P11387) -0.067
TPM4, A0A2R8Y5V9 -0.05
TRAF6 (UniProt Q9Y4K3) 0.077
TRRAP (UniProt Q9Y4A5) 0.031
TOP3B (UniProt O95985) -0.048
TNFRSF1B (UniProt P20333) 0.027
TPT1 (UniProt P13693) 0.07
TRMT61B (UniProt Q9BVS5) 0.018
TOLLIP (UniProt Q9H0E2) 0.101
TOR1AIP2 (UniProt Q8NFQ8) -0.021
TPM3 isoform 4 (UniProt P06753) -0.043
TOR3A (UniProt Q9H497) -0.021
TOMM22 (UniProt Q9NS69) 0.118
TSC22D4 (UniProt Q9Y3Q8) 0.024
TSEN15 (UniProt Q8WW01) 0.082

Compound: C1=CC(=C(C=C1Cl)C2=NC3=NC=CN=C3C(=N2)NC4=CC=NC=C4)F
Assay: as above
Procedure, shortened: as §1

log2 fold change, inactive:
TRIM25 (UniProt Q14258) -0.319
TOMM34 (UniProt Q15785) -0.045
TRIP11 (UniProt Q15643) -0.171
TRIM24 (UniProt O15164) -0.041
TPP2 (UniProt P29144) -0.318
TSEN34 (UniProt Q9BSV6) 0.17
TRIAP1 (UniProt O43715) 0.123
TP53RK (UniProt Q96S44) 0.01
TRIP13 (UniProt Q15645) 0.037
TRIO (UniProt O75962) 0.098
TSC22D2 (UniProt O75157) 0.036
TRAPPC10 (UniProt P48553) -0.06
TRMT112 (UniProt Q9UI30) 0.036
TOMM70 (UniProt O94826) 0.043
TOMM40 (UniProt O96008) 0.053
TOP2B (UniProt Q02880) -0.659
TNIK isoform 6 (UniProt Q9UKE5) -0.004
TOR4A (UniProt Q9NXH8) -0.109
TOP1 (UniProt P11387) -0.061
TPM4, A0A2R8Y5V9 0.053
TRAF6 (UniProt Q9Y4K3) 0.082
TRRAP (UniProt Q9Y4A5) 0.012
TOP3B (UniProt O95985) -0.198
TNFRSF1B (UniProt P20333) 0.021
TPT1 (UniProt P13693) 0.077
TRMT61B (UniProt Q9BVS5) -0.128
TOLLIP (UniProt Q9H0E2) 0.115
TOR1AIP2 (UniProt Q8NFQ8) -0.04
TPM3 isoform 4 (UniProt P06753) -0.011
TOR3A (UniProt Q9H497) -0.016
TOMM22 (UniProt Q9NS69) 0.133
TSC22D4 (UniProt Q9Y3Q8) 0.008
TSEN15 (UniProt Q8WW01) 0.034
